Consider 67 compounds from the supplement of paper PMC4683952.

Structures can show the parent of a compound that is named as a salt. The list shows a part of the results. Cut-off read from the data, not from the text of the source: active = 2.5 or more and inactive = the rest. Repeats in this data set agree poorly, so a single value says little.

This test relates to Lgr5 (MarsCy1-Lgr5-EGFP, U2OS). The test can be described thus: cell-surface Lgr5 expression (SCi1 fluorescence, background-subtracted) relative to WT control (fold of WT control); higher = more Lgr5 at the plasma membrane. Particulars: U2OS MarsCy1-Lgr5-EGFP stable; treatment time: overnight; library: Prestwick; 20 µM.
As to `CC(=O)c1ccc2c(c1)N(CCCN1CCC(CCO)CC1)c1ccccc1S2` [Piperacetazine], the “cell-surface Lgr5 expression” value was inactive: 1.02.
As to `CCCCC(CC)CN1CN(CC(CC)CCCC)CC(C)(N)C1` (configuration not stated) [Hexetidine], the “cell-surface Lgr5 expression” value was inactive: 2.06.
With `CCN(CC)CCOC(=O)C(c1ccccc1)C1CCCCC1` (configuration not stated) [Drofenine hydrochloride], the “cell-surface Lgr5 expression” value is active: 2.74.
With `COc1cc(Cc2cnc(N)nc2N)cc(OC)c1OC` [Trimethoprim] the figure was active: 2.5.
As for `CCCCOC(=O)c1ccc(N)cc1` [Butamben], the “cell-surface Lgr5 expression” value was inactive: 1.7.
With `O=C1NCN(c2ccccc2)C12CCN(CCCC(c1ccc(F)cc1)c1ccc(F)cc1)CC2` [Fluspirilen] the figure was inactive: 1.68; with `CC(C)(C)C(=O)OCOC(=O)[C@@H]1N2C(=O)[C@@H](NC(=O)[C@H](N)c3ccccc3)[C@H]2SC1(C)C` [Pivampicillin], inactive: 0.643; with `N=C(N)NC(=O)c1nc(Cl)c(N)nc1N` [Amiloride hydrochloride dihydrate], inactive: 1.83.
Regarding `NS(=O)(=O)c1cc(C(=O)O)c(NCc2ccco2)cc1Cl` [Furosemide], the “cell-surface Lgr5 expression” value was inactive: 1.95.
As to `Cc1cc(C2CCCCC2)n(O)c(=O)c1` [Ciclopirox ethanolamine], the “cell-surface Lgr5 expression” value was inactive: 2.17.
The result for `NS(=O)(=O)c1cc2c(cc1Cl)N=CNS2(=O)=O` [Chlorothiazide] reads inactive: 1.51; that for `CN[C@H](CC(C)C)C(=O)N[C@H]1C(=O)N[C@@H](CC(N)=O)C(=O)N[C@H]2C(=O)N[C@H]3C(=O)N[C@H](C(=O)N[C@H](C(=O)O)c4cc(O)cc(O)c4-c4cc3ccc4O)[C@H](O)c3ccc(c(Cl)c3)Oc3cc2cc(c3O[C@@H]2O[C@H](CO)[C@@H](O)[C@H](O)[C@H]2O[C@H]2C[C@](C)(N)[C@H](O)[C@H](C)O2)Oc2ccc(cc2Cl)[C@H]1O` [Vancomycin hydrochloride], inactive: 1.8.
As for `NC(=O)c1ncn([C@@H]2O[C@H](CO)[C@@H](O)[C@H]2O)n1` [Ribavirin], the “cell-surface Lgr5 expression” value is inactive: 1.41.
As for `CCOC(=O)[C@H](CCc1ccccc1)N[C@@H](C)C(=O)N1[C@H](C(=O)O)C[C@@H]2CCC[C@@H]21` [Ramipril], the “cell-surface Lgr5 expression” value was inactive: 1.06.
The result for `CCOc1ccc2c(c1)C(C)=CC(C)(C)N2` [Ethoxyquin] reads inactive: 2.07; that for `CC(C)COCC(CN(Cc1ccccc1)c1ccccc1)N1CCCC1` (configuration not stated) [Bepridil hydrochloride], inactive: 1.91; that for `CCCCNC(=O)NS(=O)(=O)c1ccc(C)cc1` [Tolbutamide], inactive: 0.785.
For the compound `O=C(O)c1cc(-c2ccc(F)cc2F)ccc1O` [Diflunisal], the “cell-surface Lgr5 expression” value is inactive: 1.01.
For the compound `CC(=O)[C@H]1CC[C@H]2[C@@H]3C[C@H](C)C4=CC(=O)CC[C@]4(C)[C@H]3[C@@H](O)C[C@]12C` [Medrysone], the “cell-surface Lgr5 expression” value is active: 3.7.
With `Cn1c(-c2ccc3c(c2)OCO3)cc(=O)c2ccccc21` [Graveoline], the “cell-surface Lgr5 expression” value was inactive: 1.97.
Regarding `CCn1cc(C(=O)O)c(=O)c2cnc(N3CCCC3)nc21` [Piromidic acid], the “cell-surface Lgr5 expression” value was inactive: 1.51.
For the compound `CNCCC(Oc1ccc(C(F)(F)F)cc1)c1ccccc1` (configuration not stated) [Fluoxetine hydrochloride], the “cell-surface Lgr5 expression” value is active: 2.65.
For the compound `Cc1nc2n(c(=O)c1CCN1CCC(c3noc4cc(F)ccc34)CC1)CCCC2` [Risperidone], the “cell-surface Lgr5 expression” value is inactive: 0.851.
The result for `CCS(=O)(=O)CCn1c([N+](=O)[O-])cnc1C` [Tinidazole] reads inactive: 2.34; that for `CCCCOc1cc(C(=O)NCCN(CC)CC)c2ccccc2n1` [Dibucaine], inactive: 1.47; that for `CCC1=C(C)CN(C(=O)NCCc2ccc(S(=O)(=O)NC(=O)N[C@H]3CC[C@H](C)CC3)cc2)C1=O` [Glimepiride], inactive: 2.43.
With `COc1ccc2cc1Oc1ccc(cc1)C[C@H]1c3cc(c(OC)cc3CCN1C)Oc1c(OC)c(OC)cc3c1[C@H](C2)N(C)CC3` [Tetrandrine] the figure was inactive: 1.81.
Regarding `COc1ccc2cc([C@@H](C)C(=O)O)ccc2c1` [(R) -Naproxen sodium salt], the “cell-surface Lgr5 expression” value was active: 3.64.
With `Nc1nc(=O)c2c([nH]1)NC[C@@H](CNc1ccc(C(=O)N[C@@H](CCC(=O)O)C(=O)O)cc1)N2C=O` [Folinic acid calcium salt] the figure was inactive: 1.11; with `CC(C)NCC(O)COc1cccc2ccccc12` (configuration not stated) [Propranolol hydrochloride], inactive: 1.56; with `CC1(C)NC(=O)N(c2ccc([N+](=O)[O-])c(C(F)(F)F)c2)C1=O` [Nilutamide], active: 3.
`CCCCC(CC)CNC(=N)NC(=N)NCCCCCCNC(=N)NC(=N)NCC(CC)CCCC` (configuration not stated) [Alexidine dihydrochloride]: the “cell-surface Lgr5 expression” value is inactive: 1.85.
Consider `COC(=O)[C@@H]1[C@H]2C[C@H]3c4[nH]c5ccccc5c4CCN3C[C@@H]2CC[C@@H]1O` [Yohimbine hydrochloride], for which the “cell-surface Lgr5 expression” value was active: 3.7.
For the compound `O=C(O)CCC(=O)Nc1ccc(S(=O)(=O)Nc2nccs2)cc1` [Succinylsulfathiazole], the “cell-surface Lgr5 expression” value was inactive: 1.76.
In the case of `COc1cnc(NS(=O)(=O)c2ccc(N)cc2)nc1` [Sulfameter], the “cell-surface Lgr5 expression” value is inactive: 1.31.
Turning to `Cc1cccc(CN2CCN(C(c3ccccc3)c3ccc(Cl)cc3)CC2)c1` (configuration not stated) [Meclozine dihydrochloride], the “cell-surface Lgr5 expression” value is inactive: 1.03.
Consider `CNCCC(Oc1ccccc1OC)c1ccccc1` (configuration not stated) [Nisoxetine hydrochloride], for which the “cell-surface Lgr5 expression” value was inactive: 1.66.
For the compound `CCOC(=O)C1=C[C@]2(CC)CCCN3CCc4c(n1c1ccccc41)[C@@H]32` [Vinpocetine], the “cell-surface Lgr5 expression” value was inactive: -0.0923.
In the case of `C[C@]12CC[C@@H]3c4ccc(O)cc4CC[C@H]3[C@@H]1CCC2=O` [Estrone], the “cell-surface Lgr5 expression” value was inactive: 2.
The result for `CN(C)[C@@H]1C(O)=C(C(N)=O)C(=O)[C@@]2(O)C(O)=C3C(=O)c4c(O)ccc(Cl)c4[C@@](C)(O)[C@H]3C[C@@H]12` [Chlortetracycline hydrochloride] reads inactive: 0.799; that for `CC(=O)N(CC(C)C(=O)O)c1c(I)cc(I)c(N)c1I` (configuration not stated) [Iocetamic acid], inactive: 2.03.
As to `c1ccc2[nH]c(-c3cscn3)nc2c1` [Tiabendazole], the “cell-surface Lgr5 expression” value is inactive: 1.47.
As for `CN1[C@@H](CC(=O)c2ccccc2)CCC[C@H]1C[C@H](O)c1ccccc1` [Lobeline alpha (-) hydrochoride], the “cell-surface Lgr5 expression” value was active: 2.56.
For the compound `CC1CS(=O)(=O)CCN1/N=C/c1ccc([N+](=O)[O-])o1` (configuration not stated) [Nifurtimox], the “cell-surface Lgr5 expression” value was inactive: 1.07.
Turning to `C=C1C[C@]23C[C@@]1(O)CC[C@H]2[C@@]12C=C[C@H](O)[C@@](C)(C(=O)O1)[C@H]2[C@@H]3C(=O)O` [Gibberellic acid], the “cell-surface Lgr5 expression” value is inactive: 0.807.
Consider `CC1=C(CC(=O)O)c2cc(F)ccc2/C1=C\c1ccc([S+](C)[O-])cc1` (configuration not stated) [Sulindac], for which the “cell-surface Lgr5 expression” value is inactive: 1.16.
On to `CN(C)CCCO[C@@H]1[C@H]2OC(C)(C)O[C@H]2O[C@@H]1[C@H](O)CO` [Amiprilose hydrochloride], for which the “cell-surface Lgr5 expression” value is inactive: 1.94.
With `C[C@]12CC[C@@H]3c4ccc(O)cc4CC[C@H]3[C@@H]1C[C@@H](O)[C@@H]2O` [Estriol] the figure was inactive: 1.06; with `CCc1cccc2c3c([nH]c12)C(CC)(CC(=O)O)OCC3` (configuration not stated) [Etodolac], active: 3.21; with `Cc1noc(NS(=O)(=O)c2ccc(N)cc2)c1C` [Sulfisoxazole], inactive: 1.19.
`CC[N+](CC)(CC)CCC(O)(c1ccccc1)C1CCCCC1` (configuration not stated) [Tridihexethyl chloride]: the “cell-surface Lgr5 expression” value was inactive: 1.33.
`CCOC(=O)[C@H](CCc1ccccc1)N[C@@H](C)C(=O)N1CCC[C@H]1C(=O)O` [Enalapril maleate]: the “cell-surface Lgr5 expression” value was inactive: 1.
For `CO/N=C(\C(=O)N[C@@H]1C(=O)N2C(C(=O)O)=C(C[N+]3(C)CCCC3)CS[C@H]12)c1csc(N)n1` [Cefepime hydrochloride], the “cell-surface Lgr5 expression” value is inactive: 1.04.
Consider `COc1ccc2[nH]c([S+]([O-])Cc3ncc(C)c(OC)c3C)nc2c1` (configuration not stated) [Omeprazole], for which the “cell-surface Lgr5 expression” value was active: 3.17.
On to `CC(=O)Nc1ccc(O)cc1` [Acetaminophen], for which the “cell-surface Lgr5 expression” value is inactive: 1.91.
As to `OCCOCCN1CCN(C(c2ccccc2)c2ccc(Cl)cc2)CC1` (configuration not stated) [Hydroxyzine dihydrochloride], the “cell-surface Lgr5 expression” value is inactive: 1.25.
On to `C=CC1=C(C(=O)O)N2C(=O)[C@@H](NC(=O)/C(=N\OCC(=O)O)c3csc(N)n3)[C@H]2SC1` [Cefixime], for which the “cell-surface Lgr5 expression” value was inactive: 0.918.
With `Cc1ccccc1N1C(=O)c2cc(S(N)(=O)=O)c(Cl)cc2NC1C` (configuration not stated) [Metolazone] the figure was inactive: 0.547; with `CCC(=O)OCC(=O)[C@@]1(OC(=O)CC)[C@H](C)C[C@H]2[C@H]3[C@H]([C@@H](O)C[C@@]21C)[C@@]1(C)C=CC(=O)C=C1C[C@H]3Cl` [Alclometasone dipropionate], active: 3.32.
The result for `c1ccc2c(c1)CCCc1cc(NCCN3CCOCC3)nnc1-2` reads inactive: 1.67.
`Nc1cc(-c2ccncc2)c[nH]c1=O` [Amrinone]: the “cell-surface Lgr5 expression” value was inactive: 0.978.
Take `CN(C)CCOC(=O)COc1ccc(Cl)cc1` [Meclofenoxate hydrochloride]: the “cell-surface Lgr5 expression” value is inactive: 1.92.
The result for `N=C(N)N/N=C/c1c(Cl)cccc1Cl` [Guanabenz acetate] reads inactive: 1.24; that for `OC(CCN1CCCCC1)(c1ccccc1)C1CCCCC1` (configuration not stated) [Trihexyphenidyl-D,L Hydrochloride], active: 2.57; that for `N[C@@H](C(=O)N[C@@H]1C(=O)N2C(C(=O)O)=C(Cl)CS[C@H]12)c1ccccc1` [Cefaclor], active: 3.42.
With `CC(Oc1ccccc1)C(=O)N[C@@H]1C(=O)N2[C@@H]1SC(C)(C)[C@@H]2C(=O)O` (some centres not stated) [Phenethicillin potassium salt], the “cell-surface Lgr5 expression” value is inactive: 0.257.
`CN(C)[C@@H]1C(O)=C(C(N)=O)C(=O)[C@@]2(O)C(O)=C3C(=O)c4c(O)ccc(Cl)c4[C@@H](O)[C@H]3C[C@@H]12` [Demeclocycline hydrochloride]: the “cell-surface Lgr5 expression” value was inactive: 1.72.
